This is one part of the list.
Experiments:
Experiment in all cases: log2 fold change, soluble protein after heating vs DMSO (PISA); higher = thermal stabilisation; K562 lysate, 10 uM; active = over 0.2 and 3.5 SD of the protein, either way, in both replicates (recomputed)
[1] = compound: NCC(=O)Nc1ccc(-n2nc(C(F)(F)F)cc2-c2ccc3c(ccc4ccccc43)c2)cc1
How it was run: (§1)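 A 30 min treatment with 10 μM compound was applied to crude K562 extract at 1 mg/mL protein in PBS pH 7.4 with 1 mM MgCl2. Heating for 3 min spanned 48°C-58°C, after which aliquots were pooled, adjusted to 0.5% NP-40 at 4°C and spun at 21,000xg for 90 min. TMTpro 16plex LC-MS/MS of the supernatant, with channel sums equalised, gave values recorded as log-two fold change in thermal stability against solvent controls, from duplicates.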

The chains behind the UniProt entries cited, without tags or fusion partners. Where a name states a change or a piece, a line headed by the entry shows the natural chain unless it says otherwise.
UniProt Q9NWS8: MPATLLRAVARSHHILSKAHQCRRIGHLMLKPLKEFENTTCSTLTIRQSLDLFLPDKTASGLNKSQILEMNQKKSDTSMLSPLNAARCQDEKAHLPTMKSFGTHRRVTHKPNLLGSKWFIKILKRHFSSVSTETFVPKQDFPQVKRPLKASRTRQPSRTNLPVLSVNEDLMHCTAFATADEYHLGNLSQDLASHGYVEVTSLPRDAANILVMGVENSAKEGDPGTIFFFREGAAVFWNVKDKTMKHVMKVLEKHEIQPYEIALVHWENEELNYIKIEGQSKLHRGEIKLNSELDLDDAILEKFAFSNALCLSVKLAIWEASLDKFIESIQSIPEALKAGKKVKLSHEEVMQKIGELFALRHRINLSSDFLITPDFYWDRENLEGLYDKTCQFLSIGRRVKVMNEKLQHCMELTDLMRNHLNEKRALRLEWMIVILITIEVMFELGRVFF
UniProt Q9HAU8: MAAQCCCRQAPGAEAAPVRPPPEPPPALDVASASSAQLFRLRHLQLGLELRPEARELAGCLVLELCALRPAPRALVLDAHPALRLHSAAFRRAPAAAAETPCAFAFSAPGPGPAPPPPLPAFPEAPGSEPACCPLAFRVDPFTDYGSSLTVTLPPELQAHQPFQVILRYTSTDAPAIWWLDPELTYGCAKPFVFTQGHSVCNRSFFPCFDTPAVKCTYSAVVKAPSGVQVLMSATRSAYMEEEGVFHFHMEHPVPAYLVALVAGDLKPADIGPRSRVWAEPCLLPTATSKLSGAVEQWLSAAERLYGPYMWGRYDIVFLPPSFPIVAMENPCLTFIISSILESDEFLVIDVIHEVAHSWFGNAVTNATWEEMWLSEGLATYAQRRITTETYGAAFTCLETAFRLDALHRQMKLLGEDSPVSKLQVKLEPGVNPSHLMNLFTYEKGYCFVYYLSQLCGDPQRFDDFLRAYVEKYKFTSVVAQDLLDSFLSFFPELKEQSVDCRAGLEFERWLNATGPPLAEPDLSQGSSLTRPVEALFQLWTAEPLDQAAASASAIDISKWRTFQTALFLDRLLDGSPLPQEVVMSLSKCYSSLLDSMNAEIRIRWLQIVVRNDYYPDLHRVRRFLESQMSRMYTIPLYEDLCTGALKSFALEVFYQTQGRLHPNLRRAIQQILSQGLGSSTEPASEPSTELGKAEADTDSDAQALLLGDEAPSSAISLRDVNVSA
UniProt Q9P0P0: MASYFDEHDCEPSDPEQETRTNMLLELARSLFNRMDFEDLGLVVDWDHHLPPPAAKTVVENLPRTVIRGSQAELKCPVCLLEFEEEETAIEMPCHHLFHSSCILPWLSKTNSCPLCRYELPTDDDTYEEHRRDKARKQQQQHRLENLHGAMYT
UniProt Q8WU17: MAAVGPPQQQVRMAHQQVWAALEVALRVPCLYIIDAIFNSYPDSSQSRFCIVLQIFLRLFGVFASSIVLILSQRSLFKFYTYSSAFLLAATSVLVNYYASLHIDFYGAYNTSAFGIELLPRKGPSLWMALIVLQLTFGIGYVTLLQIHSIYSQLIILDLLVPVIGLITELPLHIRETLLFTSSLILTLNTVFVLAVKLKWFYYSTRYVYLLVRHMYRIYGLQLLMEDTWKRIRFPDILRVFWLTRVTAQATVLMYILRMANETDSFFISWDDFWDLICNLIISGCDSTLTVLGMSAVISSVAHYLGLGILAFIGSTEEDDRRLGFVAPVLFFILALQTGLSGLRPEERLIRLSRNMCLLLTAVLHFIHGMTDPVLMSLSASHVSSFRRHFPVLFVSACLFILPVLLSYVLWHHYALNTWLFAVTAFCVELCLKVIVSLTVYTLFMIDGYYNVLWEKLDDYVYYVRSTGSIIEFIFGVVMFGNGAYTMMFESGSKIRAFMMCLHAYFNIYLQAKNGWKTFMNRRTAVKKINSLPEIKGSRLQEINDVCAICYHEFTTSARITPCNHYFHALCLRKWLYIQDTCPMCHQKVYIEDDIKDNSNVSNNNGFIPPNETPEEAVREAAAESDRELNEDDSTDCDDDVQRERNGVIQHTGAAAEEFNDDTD
UniProt O75792: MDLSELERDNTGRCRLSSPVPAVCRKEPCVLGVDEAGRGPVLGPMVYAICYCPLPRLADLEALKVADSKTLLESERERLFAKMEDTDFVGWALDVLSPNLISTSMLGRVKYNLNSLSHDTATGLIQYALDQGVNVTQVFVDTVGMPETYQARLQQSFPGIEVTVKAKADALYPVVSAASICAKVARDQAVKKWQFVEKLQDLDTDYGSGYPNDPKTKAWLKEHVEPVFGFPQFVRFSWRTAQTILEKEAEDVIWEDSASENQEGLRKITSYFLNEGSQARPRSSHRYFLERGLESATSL
UniProt Q96EP0: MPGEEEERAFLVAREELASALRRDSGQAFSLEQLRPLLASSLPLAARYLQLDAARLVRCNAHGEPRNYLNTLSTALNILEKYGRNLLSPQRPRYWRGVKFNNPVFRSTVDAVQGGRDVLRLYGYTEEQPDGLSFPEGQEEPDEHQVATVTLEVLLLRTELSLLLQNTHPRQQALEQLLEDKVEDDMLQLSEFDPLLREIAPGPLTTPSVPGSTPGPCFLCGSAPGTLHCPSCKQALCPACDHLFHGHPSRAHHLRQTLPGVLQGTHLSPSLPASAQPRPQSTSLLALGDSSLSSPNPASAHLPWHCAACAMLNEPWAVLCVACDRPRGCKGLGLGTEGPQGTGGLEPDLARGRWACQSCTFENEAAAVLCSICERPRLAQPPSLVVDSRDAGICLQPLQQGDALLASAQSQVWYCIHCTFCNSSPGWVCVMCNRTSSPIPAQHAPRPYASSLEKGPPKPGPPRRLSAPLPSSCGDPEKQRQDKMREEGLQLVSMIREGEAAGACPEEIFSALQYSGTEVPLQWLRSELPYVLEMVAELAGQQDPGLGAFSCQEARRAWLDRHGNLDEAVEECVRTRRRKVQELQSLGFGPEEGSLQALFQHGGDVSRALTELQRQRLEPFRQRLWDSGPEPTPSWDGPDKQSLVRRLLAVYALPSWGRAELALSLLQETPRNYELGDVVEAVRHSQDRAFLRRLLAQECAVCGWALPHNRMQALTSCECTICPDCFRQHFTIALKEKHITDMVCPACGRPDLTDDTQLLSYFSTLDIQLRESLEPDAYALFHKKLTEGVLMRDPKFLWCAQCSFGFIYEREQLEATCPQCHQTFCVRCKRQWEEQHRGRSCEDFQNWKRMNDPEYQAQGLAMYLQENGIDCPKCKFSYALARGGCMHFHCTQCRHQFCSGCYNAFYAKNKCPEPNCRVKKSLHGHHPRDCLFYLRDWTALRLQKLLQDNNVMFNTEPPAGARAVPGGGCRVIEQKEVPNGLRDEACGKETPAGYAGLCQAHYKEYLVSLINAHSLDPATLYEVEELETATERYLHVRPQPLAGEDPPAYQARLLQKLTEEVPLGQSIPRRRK
UniProt O75695: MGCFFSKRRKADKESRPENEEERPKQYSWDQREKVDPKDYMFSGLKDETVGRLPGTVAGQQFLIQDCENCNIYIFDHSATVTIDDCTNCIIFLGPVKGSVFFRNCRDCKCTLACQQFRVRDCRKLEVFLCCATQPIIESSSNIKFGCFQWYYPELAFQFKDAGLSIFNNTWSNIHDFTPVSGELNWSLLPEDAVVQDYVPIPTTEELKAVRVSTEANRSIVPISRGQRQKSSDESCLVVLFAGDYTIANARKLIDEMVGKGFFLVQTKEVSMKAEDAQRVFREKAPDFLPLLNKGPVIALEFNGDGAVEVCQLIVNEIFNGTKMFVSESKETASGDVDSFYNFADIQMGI
UniProt Q96G75, whole entry, looked up: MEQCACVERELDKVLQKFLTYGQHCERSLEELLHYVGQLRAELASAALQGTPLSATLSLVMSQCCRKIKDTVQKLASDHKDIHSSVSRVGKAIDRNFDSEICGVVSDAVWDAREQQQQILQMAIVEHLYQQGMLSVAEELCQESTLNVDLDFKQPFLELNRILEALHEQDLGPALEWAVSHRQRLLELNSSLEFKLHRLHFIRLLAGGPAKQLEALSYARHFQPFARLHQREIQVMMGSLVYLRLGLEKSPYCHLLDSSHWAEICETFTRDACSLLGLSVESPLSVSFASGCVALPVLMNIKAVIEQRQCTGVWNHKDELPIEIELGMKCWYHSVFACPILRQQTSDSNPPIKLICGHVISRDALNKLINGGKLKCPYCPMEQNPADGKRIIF
UniProt Q96A37: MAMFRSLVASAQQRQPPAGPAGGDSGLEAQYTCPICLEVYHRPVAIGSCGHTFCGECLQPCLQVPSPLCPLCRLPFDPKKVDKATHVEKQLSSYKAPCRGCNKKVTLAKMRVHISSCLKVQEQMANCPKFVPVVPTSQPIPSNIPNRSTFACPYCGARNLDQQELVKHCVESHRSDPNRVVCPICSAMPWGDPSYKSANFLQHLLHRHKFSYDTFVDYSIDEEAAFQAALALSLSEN
UniProt Q9H9A7: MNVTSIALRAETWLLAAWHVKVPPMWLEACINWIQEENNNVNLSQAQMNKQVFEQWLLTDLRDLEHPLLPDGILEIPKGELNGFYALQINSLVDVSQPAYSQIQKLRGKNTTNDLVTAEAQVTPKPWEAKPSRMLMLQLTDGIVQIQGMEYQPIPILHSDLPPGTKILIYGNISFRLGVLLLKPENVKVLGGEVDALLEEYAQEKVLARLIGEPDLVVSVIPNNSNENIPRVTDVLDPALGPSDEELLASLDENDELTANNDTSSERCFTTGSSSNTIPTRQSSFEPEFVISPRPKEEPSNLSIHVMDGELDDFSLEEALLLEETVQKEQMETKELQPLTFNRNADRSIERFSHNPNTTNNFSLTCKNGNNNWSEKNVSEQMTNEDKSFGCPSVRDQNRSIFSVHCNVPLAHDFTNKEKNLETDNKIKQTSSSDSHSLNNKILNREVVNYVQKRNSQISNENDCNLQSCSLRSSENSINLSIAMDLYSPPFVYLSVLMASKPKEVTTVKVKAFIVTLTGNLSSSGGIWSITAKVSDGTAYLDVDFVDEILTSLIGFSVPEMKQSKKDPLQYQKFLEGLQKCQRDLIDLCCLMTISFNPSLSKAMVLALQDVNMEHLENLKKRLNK
UniProt P15927: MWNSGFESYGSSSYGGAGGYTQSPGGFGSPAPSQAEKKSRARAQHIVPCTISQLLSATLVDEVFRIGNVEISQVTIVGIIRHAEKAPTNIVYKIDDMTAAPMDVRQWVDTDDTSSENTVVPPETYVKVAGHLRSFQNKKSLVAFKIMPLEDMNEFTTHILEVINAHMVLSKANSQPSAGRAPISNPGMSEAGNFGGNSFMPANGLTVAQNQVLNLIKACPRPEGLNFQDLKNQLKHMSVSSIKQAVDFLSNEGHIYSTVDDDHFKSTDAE
UniProt Q96AT9: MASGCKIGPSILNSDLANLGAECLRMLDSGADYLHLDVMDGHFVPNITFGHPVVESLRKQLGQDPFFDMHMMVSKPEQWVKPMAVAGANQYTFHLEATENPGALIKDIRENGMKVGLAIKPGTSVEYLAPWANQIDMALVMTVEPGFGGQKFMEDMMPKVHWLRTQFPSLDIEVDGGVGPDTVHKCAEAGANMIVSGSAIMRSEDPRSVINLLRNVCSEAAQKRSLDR
UniProt P10155: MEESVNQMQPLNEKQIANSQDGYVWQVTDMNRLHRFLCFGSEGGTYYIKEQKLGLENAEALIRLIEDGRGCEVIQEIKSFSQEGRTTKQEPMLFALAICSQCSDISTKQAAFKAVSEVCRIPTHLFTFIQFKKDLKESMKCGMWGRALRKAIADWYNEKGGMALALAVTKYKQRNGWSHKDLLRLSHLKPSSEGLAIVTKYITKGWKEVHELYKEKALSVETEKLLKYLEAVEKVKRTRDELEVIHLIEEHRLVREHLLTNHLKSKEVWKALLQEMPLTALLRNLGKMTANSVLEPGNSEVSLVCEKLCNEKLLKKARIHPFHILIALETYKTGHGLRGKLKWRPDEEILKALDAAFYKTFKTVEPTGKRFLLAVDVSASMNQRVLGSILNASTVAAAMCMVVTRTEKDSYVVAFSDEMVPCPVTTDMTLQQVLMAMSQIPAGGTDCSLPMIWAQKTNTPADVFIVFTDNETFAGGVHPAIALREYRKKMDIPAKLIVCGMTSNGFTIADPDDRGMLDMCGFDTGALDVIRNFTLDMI
UniProt O43148, whole entry, looked up: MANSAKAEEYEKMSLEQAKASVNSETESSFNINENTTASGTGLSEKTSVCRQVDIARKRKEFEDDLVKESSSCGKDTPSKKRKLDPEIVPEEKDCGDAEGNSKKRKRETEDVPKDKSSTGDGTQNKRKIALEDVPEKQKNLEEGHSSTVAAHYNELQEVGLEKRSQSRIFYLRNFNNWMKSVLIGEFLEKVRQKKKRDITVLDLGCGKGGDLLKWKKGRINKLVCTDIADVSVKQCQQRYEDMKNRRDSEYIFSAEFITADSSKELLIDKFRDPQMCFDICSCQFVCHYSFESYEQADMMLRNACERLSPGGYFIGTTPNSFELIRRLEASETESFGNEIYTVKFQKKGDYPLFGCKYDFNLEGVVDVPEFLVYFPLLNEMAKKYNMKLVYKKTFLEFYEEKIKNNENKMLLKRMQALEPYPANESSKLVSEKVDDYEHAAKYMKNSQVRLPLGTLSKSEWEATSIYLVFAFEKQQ
UniProt Q9UBF6, whole entry, looked up: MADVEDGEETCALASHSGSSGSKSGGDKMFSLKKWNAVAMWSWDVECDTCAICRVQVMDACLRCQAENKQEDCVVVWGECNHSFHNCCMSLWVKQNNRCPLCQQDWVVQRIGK

[2] = compound: O=C(CCCCCCC(=O)Nc1ccccc1)NO [vorinostat]
How it was run: as §1

[3] = compound: O=C(O)c1ccc2c(c1)nc(Nc1cccc(Cl)c1)c1ccncc12 [silmitasertib]
How it was run: as §1

[4] = compound: O=C1NC(=O)C(c2cnc3ccccn23)=C1c1cn2c3c(cc(F)cc13)CN(C(=O)N1CCCCC1)CC2
How it was run: as §1

[5] = compound: c1cn2cc(-c3ccc4cn[nH]c4c3)nc(Nc3ccc(N4CCOCC4)cc3)c2n1 [entospletinib]
How it was run: as §1

Row | Target | log2 fold change [1] | log2 fold change [2] | log2 fold change [3] | log2 fold change [4] | log2 fold change [5]
1 | RMND1 (UniProt Q9NWS8) | inactive: 0.01 | inactive: 0.092 | inactive: 0.019 | inactive: 0.031 | inactive: -0.015
2 | RNF168 (UniProt Q8IYW5) | inactive: 0.056 | inactive: -0.313 | inactive: 0.025 | inactive: -0.046 | inactive: 0.042
3 | RIC1 (UniProt Q4ADV7) | inactive: -0.053 | inactive: -0.193 | inactive: 0.057 | inactive: -0.06 | inactive: 0.045
4 | RP9 (UniProt Q8TA86) | inactive: -0.098 | inactive: 0.242 | inactive: -0.003 | inactive: -0.072 | –
5 | RNPEPL1 (UniProt Q9HAU8) | inactive: -0.196 | inactive: -0.098 | inactive: -0.15 | inactive: -0.061 | –
6 | RNF114 (UniProt Q9Y508) | inactive: -0.001 | inactive: 0.008 | inactive: 0.011 | inactive: -0.007 | inactive: -0.019
7 | RPL18 (UniProt Q07020) | inactive: 0.007 | inactive: 0.074 | inactive: 0.025 | inactive: 0.03 | inactive: 0.011
8 | RPL11 (UniProt P62913) | inactive: 0 | inactive: -0.076 | inactive: 0.059 | inactive: -0.011 | inactive: -0.026
9 | RPL24 (UniProt P83731) | inactive: 0.002 | inactive: 0.074 | inactive: 0.024 | inactive: 0.033 | inactive: 0.041
10 | RIC8B isoform 1 (UniProt Q9NVN3) | inactive: 0.057 | inactive: -0.071 | inactive: -0.002 | inactive: -0.004 | inactive: -0.085
11 | RPL14 (UniProt P50914) | inactive: -0.001 | inactive: -0.122 | inactive: 0.038 | inactive: 0.086 | inactive: 0.026
12 | RNF170 (UniProt Q96K19) | inactive: -0.003 | inactive: 0.004 | inactive: 0.169 | – | –
13 | RNF181 (UniProt Q9P0P0) | inactive: -0.014 | inactive: 0.101 | inactive: -0.019 | inactive: -0.023 | active: -0.24
14 | RPL31 (UniProt P62899) | inactive: 0.003 | inactive: 0.126 | inactive: 0.007 | inactive: 0.06 | inactive: 0.021
15 | RHOB (UniProt P62745) | inactive: 0.041 | inactive: 0.056 | inactive: 0.038 | inactive: 0.082 | inactive: -0.048
16 | RNF139 (UniProt Q8WU17) | inactive: -0.026 | inactive: -0.038 | inactive: 0.012 | inactive: -0.027 | –
17 | RNASEH2A (UniProt O75792) | inactive: 0.029 | inactive: 0.031 | inactive: -0.041 | inactive: -0.029 | inactive: 0.004
18 | RIPK1 (UniProt Q13546) | inactive: -0.021 | active: -0.292 | inactive: -0.037 | inactive: -0.013 | inactive: 0.011
19 | RNF31 (UniProt Q96EP0) | inactive: 0.013 | inactive: -0.024 | inactive: -0.004 | inactive: 0.006 | inactive: -0.056
20 | RMND5A (UniProt Q9H871) | inactive: -0.016 | inactive: -0.112 | inactive: 0.008 | inactive: -0.045 | inactive: -0.04
21 | RP2 (UniProt O75695) | inactive: -0.079 | inactive: 0.178 | inactive: -0.043 | inactive: -0.017 | inactive: 0.029
22 | RMND5B (UniProt Q96G75) | inactive: 0.036 | – | – | – | –
23 | RNF149 (UniProt Q8NC42) | inactive: 0.036 | inactive: 0.098 | inactive: 0.013 | inactive: 0.015 | –
24 | RHOT2 (UniProt Q8IXI1) | inactive: 0.039 | inactive: 0.037 | inactive: 0.048 | inactive: 0.007 | inactive: -0.014
25 | RPL29 (UniProt P47914) | inactive: -0.027 | inactive: 0.159 | inactive: -0.046 | inactive: 0.052 | inactive: 0.01
26 | RPL13A (UniProt P40429) | inactive: 0.01 | inactive: 0.075 | inactive: 0.024 | inactive: -0.043 | inactive: 0.014
27 | RHOXF2B (UniProt P0C7M4) | inactive: -0.031 | inactive: -0.38 | inactive: 0.001 | – | –
28 | RPL34 (UniProt P49207) | inactive: 0.006 | inactive: 0.097 | inactive: 0.027 | inactive: -0.026 | inactive: -0.016

4 entries picked at random from those above, as already listed:
Row | Target | log2 fold change [1] | log2 fold change [2] | log2 fold change [3] | log2 fold change [4] | log2 fold change [5]
14 | RPL31 (UniProt P62899) | inactive: 0.003 | inactive: 0.126 | inactive: 0.007 | inactive: 0.06 | inactive: 0.021
7 | RPL18 (UniProt Q07020) | inactive: 0.007 | inactive: 0.074 | inactive: 0.025 | inactive: 0.03 | inactive: 0.011
24 | RHOT2 (UniProt Q8IXI1) | inactive: 0.039 | inactive: 0.037 | inactive: 0.048 | inactive: 0.007 | inactive: -0.014
6 | RNF114 (UniProt Q9Y508) | inactive: -0.001 | inactive: 0.008 | inactive: 0.011 | inactive: -0.007 | inactive: -0.019

Later entries.

Row | Target | log2 fold change [1] | log2 fold change [2] | log2 fold change [3] | log2 fold change [4] | log2 fold change [5]
29 | RPL35A (UniProt P18077) | inactive: 0.039 | inactive: 0.062 | inactive: -0.022 | inactive: 0.008 | inactive: -0.032
30 | RNF40 (UniProt O75150) | inactive: 0.015 | active: -0.237 | inactive: 0.032 | inactive: -0.007 | inactive: -0.022
31 | ROCK2 (UniProt O75116) | inactive: -0.003 | inactive: -0.116 | inactive: 0.003 | inactive: -0.042 | inactive: -0.042
32 | RPL21 (UniProt P46778) | inactive: 0.055 | inactive: 0.093 | inactive: -0.05 | inactive: 0.017 | inactive: -0.005
33 | RIC8A (UniProt Q9NPQ8) | inactive: -0.002 | inactive: -0.103 | inactive: 0.035 | inactive: 0.026 | inactive: -0.007
34 | RIOX1 (UniProt Q9H6W3) | inactive: 0.04 | inactive: -0.147 | inactive: -0.101 | inactive: -0.003 | inactive: -0.04
35 | RIF1 (UniProt Q5UIP0) | inactive: 0.003 | inactive: -0.204 | inactive: 0 | inactive: 0.012 | inactive: -0.037
36 | RNF166 (UniProt Q96A37) | inactive: -0.024 | inactive: 0.062 | inactive: 0.076 | inactive: 0.048 | inactive: -0.091
37 | RMI1 (UniProt Q9H9A7) | inactive: 0.102 | inactive: -0.101 | inactive: 0.003 | inactive: 0.007 | inactive: 0.008
38 | RPA2 isoform 3 (UniProt P15927) | inactive: 0.006 | inactive: 0.12 | inactive: -0.012 | inactive: -0.015 | inactive: 0.041
39 | RNGTT (UniProt O60942) | inactive: 0.019 | inactive: -0.142 | inactive: 0.065 | inactive: -0.007 | inactive: -0.025
40 | RPL35 (UniProt P42766) | inactive: 0.007 | inactive: 0.111 | inactive: 0.035 | inactive: 0.017 | inactive: 0.048
41 | RPA1 (UniProt P27694) | inactive: 0.015 | inactive: 0.027 | inactive: -0.005 | inactive: -0.018 | inactive: 0.013
42 | RNF146 (UniProt Q9NTX7) | inactive: -0.021 | inactive: -0.007 | inactive: 0.008 | inactive: 0.016 | inactive: 0.009
43 | RHOU (UniProt Q7L0Q8) | inactive: 0.019 | inactive: -0.116 | inactive: 0.058 | inactive: -0.039 | inactive: 0.024
44 | RMDN3 (UniProt Q96TC7) | inactive: -0.049 | inactive: 0.024 | inactive: 0.048 | inactive: 0.015 | inactive: 0.07
45 | RNH1 (UniProt P13489) | inactive: 0.023 | inactive: 0.267 | inactive: -0.015 | inactive: 0.017 | inactive: -0.023
46 | RPL36A (UniProt P83881) | inactive: 0.016 | inactive: 0.132 | inactive: 0 | inactive: 0.047 | inactive: 0.019
47 | RPE (UniProt Q96AT9) | inactive: -0.177 | inactive: 0.106 | inactive: -0.095 | inactive: 0.011 | inactive: 0.027
48 | RO60 (UniProt P10155) | inactive: -0.017 | inactive: 0.08 | inactive: -0.024 | inactive: -0.015 | inactive: 0.008
49 | RPL36 (UniProt Q9Y3U8) | inactive: 0.039 | inactive: 0.103 | inactive: -0.003 | inactive: 0.039 | inactive: 0.002
50 | RPL18A (UniProt Q02543) | inactive: -0.032 | inactive: 0.048 | inactive: 0.02 | inactive: 0.04 | inactive: 0.033
51 | RNF187 (UniProt Q5TA31) | inactive: 0.071 | inactive: -0.002 | inactive: 0.02 | inactive: 0.009 | inactive: -0.12
52 | RPIA (UniProt P49247) | inactive: 0.045 | inactive: 0.121 | inactive: -0.017 | inactive: 0.007 | inactive: -0.012
53 | RPL32 (UniProt P62910) | inactive: -0.037 | inactive: 0.076 | inactive: -0.049 | inactive: -0.005 | inactive: 0.008
54 | RNMT isoform 2 (UniProt O43148) | inactive: 0.001 | inactive: 0.016 | inactive: -0.054 | inactive: 0.009 | inactive: -0.041
55 | RNF7 (UniProt Q9UBF6) | inactive: -0.051 | inactive: 0.047 | inactive: 0.04 | inactive: 0.082 | inactive: -0.16
